Test results as given in PubChem BioAssay AID651640 (Broad Institute, 2012).
Out of some 350,000 compounds screened, about 6,000 (1.7%) were called active. The source calls these results inconclusive, neither active nor inactive. No stated cut-off is given here; in the data, active means CPE inhibition above about 20% (passing the limit was not always enough); inconclusive means no clear call, values can overlap the other calls; tested in BHK-21 cells.

Test: inhibitors of DENV2 cytopathic effect, primary screen, cell-based, plate reader, single concentration (AID 651640);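 further: 0% = median of neutral control wells and 100% = median of positive control wells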
Conditions: DENV2-infected cells, cytopathic effect rescue, at 9.99 µM, hits give high values
In the case of `O=[N+]([O-])c1cc([N+](=O)[O-])c(-n2nnc3ccccc32)c([N+](=O)[O-])c1`, the CPE inhibition is reported as inconclusive: 21.8%.
With `CP(=O)(Nc1ccccc1Br)Oc1ccccc1` (centres undefined) the CPE inhibition was inconclusive: 82.4%.
For `CP(=O)(Nc1ccc(SC(F)(F)F)cc1)Oc1ccc(Cl)cc1` (centres undefined), the CPE inhibition was inconclusive: 26.3%.
With `O=[N+]([O-])c1cc([N+](=O)[O-])c(Nc2ccc(Cl)cc2)c([N+](=O)[O-])c1` the CPE inhibition was inconclusive: 20.3%.
